# From the supplement of paper PMC10849652
# By UniProt entry, the sequences of proteins in these tests, tags left out. Where a name states a change or a piece, a line headed by the entry shows the natural chain unless it says otherwise.
# UniProt Q5UCC4: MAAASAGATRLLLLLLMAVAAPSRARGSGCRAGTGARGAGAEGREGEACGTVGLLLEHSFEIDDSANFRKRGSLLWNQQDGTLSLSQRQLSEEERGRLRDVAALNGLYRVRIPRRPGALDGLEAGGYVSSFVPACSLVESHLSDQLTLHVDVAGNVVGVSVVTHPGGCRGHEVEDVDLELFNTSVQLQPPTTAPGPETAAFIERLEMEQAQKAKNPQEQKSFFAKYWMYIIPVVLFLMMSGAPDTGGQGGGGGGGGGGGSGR
# UniProt O75356: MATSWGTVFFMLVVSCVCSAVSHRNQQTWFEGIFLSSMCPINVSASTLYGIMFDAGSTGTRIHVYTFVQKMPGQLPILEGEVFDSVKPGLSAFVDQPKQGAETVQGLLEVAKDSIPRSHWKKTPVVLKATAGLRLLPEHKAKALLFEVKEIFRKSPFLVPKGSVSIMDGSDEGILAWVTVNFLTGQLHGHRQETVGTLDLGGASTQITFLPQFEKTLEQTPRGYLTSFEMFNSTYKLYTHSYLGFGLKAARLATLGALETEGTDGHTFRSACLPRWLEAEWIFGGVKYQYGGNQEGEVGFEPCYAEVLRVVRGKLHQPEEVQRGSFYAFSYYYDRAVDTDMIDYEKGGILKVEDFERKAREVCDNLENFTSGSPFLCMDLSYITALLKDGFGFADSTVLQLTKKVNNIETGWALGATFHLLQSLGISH
# UniProt P49770: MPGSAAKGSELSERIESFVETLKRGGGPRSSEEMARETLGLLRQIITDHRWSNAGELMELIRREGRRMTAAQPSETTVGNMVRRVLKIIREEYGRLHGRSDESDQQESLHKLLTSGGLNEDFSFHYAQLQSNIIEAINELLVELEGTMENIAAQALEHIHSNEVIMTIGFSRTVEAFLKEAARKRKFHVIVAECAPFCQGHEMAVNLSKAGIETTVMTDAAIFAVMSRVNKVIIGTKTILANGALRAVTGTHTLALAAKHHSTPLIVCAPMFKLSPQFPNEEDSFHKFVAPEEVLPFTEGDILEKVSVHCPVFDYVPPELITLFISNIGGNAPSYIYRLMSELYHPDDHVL
# UniProt Q9P0I2: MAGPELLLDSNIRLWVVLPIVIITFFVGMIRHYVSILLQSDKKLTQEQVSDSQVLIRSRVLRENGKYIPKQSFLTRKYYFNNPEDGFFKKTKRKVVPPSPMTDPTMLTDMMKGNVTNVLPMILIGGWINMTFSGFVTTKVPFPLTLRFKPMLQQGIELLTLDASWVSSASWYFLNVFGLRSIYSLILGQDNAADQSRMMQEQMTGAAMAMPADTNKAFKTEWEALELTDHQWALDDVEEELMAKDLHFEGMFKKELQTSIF
# UniProt P60228, whole entry, looked up: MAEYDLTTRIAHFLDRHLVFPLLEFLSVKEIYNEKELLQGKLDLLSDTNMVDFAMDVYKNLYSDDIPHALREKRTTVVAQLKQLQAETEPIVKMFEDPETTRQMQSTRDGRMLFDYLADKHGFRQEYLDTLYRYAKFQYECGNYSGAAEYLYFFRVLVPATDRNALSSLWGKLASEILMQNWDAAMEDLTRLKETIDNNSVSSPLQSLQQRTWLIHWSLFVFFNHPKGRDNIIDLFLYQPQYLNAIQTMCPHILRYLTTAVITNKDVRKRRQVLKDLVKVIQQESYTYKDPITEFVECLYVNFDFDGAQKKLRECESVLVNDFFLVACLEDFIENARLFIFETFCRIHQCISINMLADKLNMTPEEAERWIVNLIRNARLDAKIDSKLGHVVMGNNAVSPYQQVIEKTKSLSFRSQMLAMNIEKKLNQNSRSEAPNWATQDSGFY
# UniProt P84090, whole entry, looked up: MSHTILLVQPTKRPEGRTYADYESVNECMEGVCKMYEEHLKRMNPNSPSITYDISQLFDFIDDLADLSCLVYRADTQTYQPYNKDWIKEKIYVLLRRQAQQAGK
# UniProt Q9NR50: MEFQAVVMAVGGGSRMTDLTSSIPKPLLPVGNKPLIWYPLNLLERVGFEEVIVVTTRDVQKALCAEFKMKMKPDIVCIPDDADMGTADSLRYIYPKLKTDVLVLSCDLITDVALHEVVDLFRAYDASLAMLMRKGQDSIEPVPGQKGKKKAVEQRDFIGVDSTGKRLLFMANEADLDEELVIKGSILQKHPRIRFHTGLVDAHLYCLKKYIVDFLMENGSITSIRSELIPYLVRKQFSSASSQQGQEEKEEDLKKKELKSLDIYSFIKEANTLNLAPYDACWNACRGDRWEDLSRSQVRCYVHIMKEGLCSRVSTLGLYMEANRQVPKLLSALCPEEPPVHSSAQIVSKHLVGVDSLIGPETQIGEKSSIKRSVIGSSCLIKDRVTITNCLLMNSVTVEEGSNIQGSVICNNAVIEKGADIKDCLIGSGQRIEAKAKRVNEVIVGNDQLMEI
# UniProt O15371, whole entry, looked up: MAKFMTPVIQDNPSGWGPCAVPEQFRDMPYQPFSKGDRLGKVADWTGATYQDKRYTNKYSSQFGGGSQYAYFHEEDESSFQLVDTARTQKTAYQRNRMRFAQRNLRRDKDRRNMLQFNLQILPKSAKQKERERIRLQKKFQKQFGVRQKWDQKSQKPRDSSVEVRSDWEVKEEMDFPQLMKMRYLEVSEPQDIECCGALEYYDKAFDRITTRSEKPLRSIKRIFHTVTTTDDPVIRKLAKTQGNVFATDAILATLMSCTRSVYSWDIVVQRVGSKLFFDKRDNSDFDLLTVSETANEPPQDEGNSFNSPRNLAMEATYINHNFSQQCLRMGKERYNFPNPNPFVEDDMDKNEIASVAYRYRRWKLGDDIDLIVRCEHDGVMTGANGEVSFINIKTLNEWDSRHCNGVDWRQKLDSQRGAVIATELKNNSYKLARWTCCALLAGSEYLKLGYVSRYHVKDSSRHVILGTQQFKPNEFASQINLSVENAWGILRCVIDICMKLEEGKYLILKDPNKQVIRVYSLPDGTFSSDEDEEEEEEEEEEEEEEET
# UniProt P09104, whole entry, looked up: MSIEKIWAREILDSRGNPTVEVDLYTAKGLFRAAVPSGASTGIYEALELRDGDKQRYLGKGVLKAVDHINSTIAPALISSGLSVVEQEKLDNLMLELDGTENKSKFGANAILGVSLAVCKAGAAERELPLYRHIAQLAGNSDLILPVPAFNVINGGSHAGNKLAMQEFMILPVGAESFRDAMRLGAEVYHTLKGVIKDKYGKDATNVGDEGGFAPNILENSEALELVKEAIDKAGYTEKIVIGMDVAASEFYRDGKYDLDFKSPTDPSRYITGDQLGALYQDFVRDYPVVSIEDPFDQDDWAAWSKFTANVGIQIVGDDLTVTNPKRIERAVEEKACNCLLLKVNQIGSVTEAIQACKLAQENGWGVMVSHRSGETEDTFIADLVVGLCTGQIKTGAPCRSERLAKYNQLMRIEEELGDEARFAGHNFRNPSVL
# UniProt Q14152, whole entry, looked up: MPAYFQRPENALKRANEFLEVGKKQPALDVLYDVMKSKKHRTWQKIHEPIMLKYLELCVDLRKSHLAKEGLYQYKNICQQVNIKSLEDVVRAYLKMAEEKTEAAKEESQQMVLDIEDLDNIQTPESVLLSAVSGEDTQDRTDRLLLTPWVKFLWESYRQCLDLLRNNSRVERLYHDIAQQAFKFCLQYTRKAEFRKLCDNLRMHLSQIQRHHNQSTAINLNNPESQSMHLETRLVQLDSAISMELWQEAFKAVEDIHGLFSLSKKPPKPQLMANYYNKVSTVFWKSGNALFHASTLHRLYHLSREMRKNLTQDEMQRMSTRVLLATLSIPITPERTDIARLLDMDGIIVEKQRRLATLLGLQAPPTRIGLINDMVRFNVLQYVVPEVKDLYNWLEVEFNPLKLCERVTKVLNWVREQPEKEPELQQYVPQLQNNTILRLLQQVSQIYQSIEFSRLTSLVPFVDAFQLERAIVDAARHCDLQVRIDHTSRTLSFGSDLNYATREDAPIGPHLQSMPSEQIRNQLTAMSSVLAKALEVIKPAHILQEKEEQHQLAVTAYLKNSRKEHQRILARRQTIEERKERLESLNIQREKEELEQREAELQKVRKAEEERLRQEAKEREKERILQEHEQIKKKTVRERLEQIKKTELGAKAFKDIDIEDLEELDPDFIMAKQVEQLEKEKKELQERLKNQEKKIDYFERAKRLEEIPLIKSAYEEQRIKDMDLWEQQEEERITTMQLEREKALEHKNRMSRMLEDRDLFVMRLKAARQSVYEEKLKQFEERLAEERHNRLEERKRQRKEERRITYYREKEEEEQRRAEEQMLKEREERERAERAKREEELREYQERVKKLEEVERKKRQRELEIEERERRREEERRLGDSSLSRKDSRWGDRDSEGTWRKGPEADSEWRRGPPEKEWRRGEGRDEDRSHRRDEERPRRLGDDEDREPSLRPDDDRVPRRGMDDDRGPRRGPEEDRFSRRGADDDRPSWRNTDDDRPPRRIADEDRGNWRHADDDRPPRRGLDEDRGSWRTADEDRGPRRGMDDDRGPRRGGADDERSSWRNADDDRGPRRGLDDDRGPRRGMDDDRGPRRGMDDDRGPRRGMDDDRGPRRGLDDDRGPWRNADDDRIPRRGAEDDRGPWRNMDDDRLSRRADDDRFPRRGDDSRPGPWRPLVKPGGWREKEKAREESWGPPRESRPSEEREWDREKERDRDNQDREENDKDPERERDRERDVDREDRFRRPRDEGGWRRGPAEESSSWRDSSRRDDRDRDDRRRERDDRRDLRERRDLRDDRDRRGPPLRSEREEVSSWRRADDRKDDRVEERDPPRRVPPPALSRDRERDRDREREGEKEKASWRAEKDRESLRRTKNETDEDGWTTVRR
# UniProt O75822, whole entry, looked up: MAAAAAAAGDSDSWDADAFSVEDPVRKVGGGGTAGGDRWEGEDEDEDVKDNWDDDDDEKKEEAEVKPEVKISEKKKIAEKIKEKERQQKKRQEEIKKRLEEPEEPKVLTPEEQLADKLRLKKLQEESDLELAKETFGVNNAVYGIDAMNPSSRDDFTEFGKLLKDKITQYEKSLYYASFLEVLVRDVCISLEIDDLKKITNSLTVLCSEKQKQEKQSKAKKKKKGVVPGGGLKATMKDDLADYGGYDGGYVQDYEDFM
# UniProt Q9UI10, whole entry, looked up: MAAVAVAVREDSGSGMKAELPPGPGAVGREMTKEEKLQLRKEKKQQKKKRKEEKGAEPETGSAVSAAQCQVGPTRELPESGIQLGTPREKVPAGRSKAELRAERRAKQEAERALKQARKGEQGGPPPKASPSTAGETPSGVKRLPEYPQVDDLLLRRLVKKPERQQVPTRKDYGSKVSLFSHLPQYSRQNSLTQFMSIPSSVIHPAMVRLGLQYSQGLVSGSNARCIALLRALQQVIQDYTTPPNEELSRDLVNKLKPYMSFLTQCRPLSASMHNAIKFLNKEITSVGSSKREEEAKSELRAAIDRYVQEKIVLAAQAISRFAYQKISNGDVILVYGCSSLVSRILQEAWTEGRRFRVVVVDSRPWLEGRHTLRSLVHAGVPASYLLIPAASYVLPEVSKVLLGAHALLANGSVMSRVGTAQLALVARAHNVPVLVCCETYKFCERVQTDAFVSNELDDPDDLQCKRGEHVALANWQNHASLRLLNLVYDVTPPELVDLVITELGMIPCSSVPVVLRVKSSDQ
# UniProt Q99613, whole entry, looked up: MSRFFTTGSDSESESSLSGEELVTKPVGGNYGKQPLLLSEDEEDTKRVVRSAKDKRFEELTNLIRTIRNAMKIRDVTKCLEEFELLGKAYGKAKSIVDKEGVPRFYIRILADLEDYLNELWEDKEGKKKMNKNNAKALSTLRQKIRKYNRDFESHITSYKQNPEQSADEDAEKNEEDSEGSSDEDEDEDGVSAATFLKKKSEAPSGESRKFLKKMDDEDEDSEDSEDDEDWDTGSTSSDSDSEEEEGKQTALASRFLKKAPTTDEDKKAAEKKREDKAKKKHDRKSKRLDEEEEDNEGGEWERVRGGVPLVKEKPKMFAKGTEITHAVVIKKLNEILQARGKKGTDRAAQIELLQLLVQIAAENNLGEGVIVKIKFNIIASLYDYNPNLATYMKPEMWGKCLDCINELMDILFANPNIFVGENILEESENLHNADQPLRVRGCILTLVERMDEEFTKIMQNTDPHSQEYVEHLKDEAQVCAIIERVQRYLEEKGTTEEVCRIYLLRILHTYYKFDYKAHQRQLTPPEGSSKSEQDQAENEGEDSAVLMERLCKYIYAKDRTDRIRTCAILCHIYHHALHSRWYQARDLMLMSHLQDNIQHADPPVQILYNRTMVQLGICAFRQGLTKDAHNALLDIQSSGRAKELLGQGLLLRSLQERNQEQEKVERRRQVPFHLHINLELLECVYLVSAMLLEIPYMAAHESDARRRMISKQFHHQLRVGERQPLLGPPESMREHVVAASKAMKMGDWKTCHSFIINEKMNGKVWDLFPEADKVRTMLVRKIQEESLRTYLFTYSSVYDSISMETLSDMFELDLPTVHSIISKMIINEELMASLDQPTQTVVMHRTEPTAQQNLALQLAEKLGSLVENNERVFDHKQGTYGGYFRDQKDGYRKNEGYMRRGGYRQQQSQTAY
# UniProt P06730, whole entry, looked up: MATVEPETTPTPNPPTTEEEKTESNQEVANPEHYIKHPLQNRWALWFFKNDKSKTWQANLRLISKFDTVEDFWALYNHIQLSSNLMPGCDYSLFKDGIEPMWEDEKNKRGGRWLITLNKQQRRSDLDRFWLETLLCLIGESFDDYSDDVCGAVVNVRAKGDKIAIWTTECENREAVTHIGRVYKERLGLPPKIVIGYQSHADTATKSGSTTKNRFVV
# Some of the results follow.
# Tests used:
# Experiment in all cases: log2 fold change, soluble protein after heating vs DMSO (PISA); higher = thermal stabilisation; K562 lysate, 10 uM; active = over 0.2 and 3.5 SD of the protein, either way, in both replicates (recomputed)
# vemurafenib = compound: CCCS(=O)(=O)Nc1ccc(F)c(C(=O)c2c[nH]c3ncc(-c4ccc(Cl)cc4)cc23)c1F [vemurafenib]
# How it was run: (§1)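 Quantification was by TMTpro 16plex LC-MS/MS with equalised channel sums, applied to the supernatant after 21,000xg for 90 min. Samples were crude K562 extract at 1 mg/mL protein in PBS pH 7.4 with 1 mM MgCl2, treated with 10 μM compound for 30 min, heated for 3 min across 48°C-58°C, pooled and brought to 0.5% NP-40 at 4°C. Values are log-two fold changes in thermal stability relative to solvent controls, from duplicates.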
# [1] = compound: CCCS(=O)(=O)Nc1ccc(F)c(C(=O)c2c[nH]c3ncc(Cl)cc23)c1F
# How it was run: as §1
# barasertib = compound: CCN(CCCOc1ccc2c(Nc3cc(CC(=O)Nc4cccc(F)c4)[nH]n3)ncnc2c1)CCOP(=O)(O)O [barasertib]
# How it was run: as §1
# [2] = compound: CC[C@@H]1C(=O)N(C)c2cnc(Nc3ccc(C(=O)NC4CCN(C)CC4)cc3OC)nc2N1C1CCCC1
# How it was run: as §1
# volasertib = compound: CC[C@@H]1C(=O)N(C)c2cnc(Nc3ccc(C(=O)N[C@H]4CC[C@H](N5CCN(CC6CC6)CC5)CC4)cc3OC)nc2N1C(C)C [volasertib]
# How it was run: as §1
# [3] = compound: CCn1c(C(=O)N(C2CC2)C2CC2)cc2c3c(ncn3C)c(Nc3cc(C)n(C)n3)nc21
# How it was run: as §1
# [4] = compound: CCn1cc(-c2ccnc3[nH]c(-c4cccc(CN(C)C)c4)cc23)c(-c2ccc(NC(=O)N(C)C)cc2)n1
# How it was run: as §1
# [5] = compound: CN1CCC(CNc2ccc3ncc(-c4cccc(OC(F)(F)F)c4)n3n2)CC1
# How it was run: as §1
# saracatinib = compound: CN1CCN(CCOc2cc(OC3CCOCC3)c3c(Nc4c(Cl)ccc5c4OCO5)ncnc3c2)CC1 [saracatinib]
# How it was run: as §1
# sotrastaurin = compound: CN1CCN(c2nc(C3=C(c4c[nH]c5ccccc45)C(=O)NC3=O)c3ccccc3n2)CC1 [sotrastaurin]
# How it was run: as §1
Target,log2 fold change (vemurafenib),log2 fold change [1],log2 fold change (barasertib),log2 fold change [2],log2 fold change (volasertib),log2 fold change [3],log2 fold change [4],log2 fold change [5],log2 fold change (saracatinib),log2 fold change (sotrastaurin)
EP300 (UniProt Q09472),inactive: -0.018,inactive: -0.01,inactive: 0.007,inactive: -0.006,inactive: -0.042,inactive: -0.009,inactive: -0.151,inactive: 0.058,inactive: 0.027,inactive: -0.022
ERCC6 (UniProt Q03468),inactive: 0.177,inactive: 0.077,inactive: -0.112,inactive: 0.081,inactive: 0.006,inactive: 0.002,inactive: -0.1,inactive: 0.026,inactive: -0.124,
ELL (UniProt P55199),inactive: 0.119,inactive: 0.035,inactive: -0.055,inactive: -0.017,inactive: -0.034,inactive: 0.002,inactive: 0.145,inactive: -0.076,inactive: 0.05,inactive: 0.061
EMC8 (UniProt O43402),inactive: 0.054,inactive: -0.014,inactive: -0.002,inactive: 0.025,inactive: -0.011,inactive: 0.018,inactive: 0.19,inactive: -0.022,inactive: 0.009,inactive: -0.022
EPB41L2 (UniProt O43491),inactive: -0.009,inactive: 0.013,inactive: 0.019,inactive: 0.001,inactive: 0.003,inactive: -0.014,inactive: 0.09,inactive: -0.035,inactive: 0.025,inactive: -0.011
EMC10 (UniProt Q5UCC4),inactive: 0.059,inactive: 0.019,inactive: 0.097,inactive: -0.028,inactive: 0,inactive: 0.003,inactive: -0.241,inactive: 0.18,inactive: 0.004,inactive: -0.045
ENTPD5 (UniProt O75356),inactive: -0.112,inactive: 0.036,inactive: -0.036,inactive: -0.076,inactive: -0.02,inactive: 0.082,inactive: -0.033,inactive: 0.064,inactive: -0.041,inactive: 0.014
EIF2B2 (UniProt P49770),inactive: -0.063,inactive: 0.03,inactive: 0.016,inactive: -0.089,inactive: -0.004,inactive: 0.023,inactive: 0.029,inactive: -0.055,inactive: 0.012,inactive: 0.026
EIF4G2 (UniProt P78344),inactive: 0.008,inactive: -0.025,inactive: 0.066,inactive: -0.031,inactive: -0.012,inactive: 0.07,inactive: -0.017,inactive: -0.01,inactive: 0.031,inactive: -0.034
EMC3 (UniProt Q9P0I2),inactive: 0.009,inactive: 0.03,inactive: -0.034,inactive: 0.047,inactive: -0.018,inactive: -0.041,inactive: -0.024,inactive: -0.017,inactive: 0.006,inactive: -0.026
ERGIC1 (UniProt Q969X5),inactive: 0.026,inactive: 0.018,inactive: -0.057,inactive: 0.019,inactive: 0.055,inactive: 0.039,inactive: -0.018,inactive: -0.002,inactive: 0.028,inactive: 0.017
EIF4EBP2 (UniProt Q13542),inactive: -0.036,inactive: -0.09,inactive: 0.223,inactive: 0.218,inactive: 0.062,inactive: 0.122,inactive: -0.036,inactive: -0.16,inactive: 0.027,inactive: -0.028
EIF3E (UniProt P60228),inactive: -0.005,inactive: 0.015,inactive: 0.054,inactive: -0.119,inactive: -0.081,inactive: 0.052,inactive: -0.066,inactive: 0.024,inactive: 0.034,inactive: 0.067
ENOPH1 (UniProt Q9UHY7),inactive: -0.016,inactive: 0.03,inactive: 0.077,inactive: -0.018,inactive: -0.016,inactive: 0.003,inactive: 0.021,inactive: 0.006,inactive: 0.005,inactive: 0.035
ELP1 (UniProt O95163),inactive: 0.022,inactive: 0.01,inactive: 0.001,inactive: 0.018,inactive: 0,inactive: -0.027,inactive: -0.113,inactive: 0.055,inactive: -0.015,inactive: 0
ERGIC2 (UniProt Q96RQ1),inactive: -0.006,inactive: 0,inactive: 0.125,inactive: -0.048,inactive: -0.028,inactive: 0.001,inactive: 0.064,inactive: -0.045,inactive: -0.032,inactive: -0.016
ERH (UniProt P84090),inactive: -0.063,inactive: 0.026,inactive: -0.032,inactive: -0.028,inactive: 0.046,inactive: 0.006,inactive: 0.009,inactive: 0.012,inactive: -0.03,inactive: 0.006
ELOA (UniProt Q14241),inactive: -0.004,inactive: 0.009,inactive: -0.052,inactive: 0.075,inactive: 0.008,inactive: 0.002,inactive: -0.036,inactive: 0.059,inactive: 0.009,inactive: -0.005
EIF2B3 (UniProt Q9NR50),inactive: 0.013,inactive: 0.021,inactive: -0.008,inactive: -0.028,inactive: -0.02,inactive: 0.044,active: 0.287,inactive: -0.111,inactive: 0.005,inactive: -0.003
EIF3D (UniProt O15371),inactive: 0.009,inactive: -0.009,inactive: 0.019,inactive: -0.094,inactive: -0.046,inactive: -0.002,inactive: -0.043,inactive: 0.04,inactive: 0.026,inactive: -0.009
ENO2 (UniProt P09104),inactive: 0.05,inactive: 0.008,inactive: -0.132,inactive: 0.044,inactive: 0.046,inactive: -0.069,inactive: -0.231,active: 0.319,inactive: 0.06,inactive: 0.034
EIF3A (UniProt Q14152),inactive: 0.009,inactive: -0.001,inactive: 0.037,inactive: -0.031,inactive: -0.035,inactive: 0.012,inactive: -0.023,inactive: -0.06,inactive: -0.017,inactive: 0.033
EIF3K (UniProt Q9UBQ5),inactive: -0.028,inactive: -0.001,inactive: 0.023,inactive: -0.049,inactive: -0.015,inactive: -0.029,inactive: -0.016,inactive: -0.08,inactive: 0.023,inactive: 0.002
EIF3J (UniProt O75822),inactive: 0.021,inactive: -0.018,inactive: -0.017,inactive: 0.05,inactive: 0.032,inactive: -0.016,inactive: -0.009,inactive: -0.007,inactive: -0.002,inactive: 0.006
EIF2B4 isoform 2 (UniProt Q9UI10),inactive: -0.034,inactive: 0.02,inactive: 0.006,inactive: -0.038,inactive: -0.017,inactive: -0.004,inactive: -0.02,inactive: 0.002,inactive: 0.006,inactive: -0.004
"EIF4G3, A0A0U1RQK7",inactive: 0.009,inactive: 0.029,inactive: 0.013,inactive: -0.004,inactive: -0.023,inactive: 0.051,inactive: -0.05,inactive: 0.038,inactive: 0.046,inactive: 0.032
EPHB4 (UniProt P54760),inactive: 0.084,inactive: 0,inactive: 0.102,inactive: 0.015,inactive: -0.129,inactive: 0.019,inactive: 0.018,inactive: -0.012,inactive: 0.039,inactive: -0.098
ERBIN isoform 8 (UniProt Q96RT1),inactive: 0.038,inactive: 0.015,inactive: -0.004,inactive: 0.068,inactive: -0.013,active: 0.338,inactive: -0.028,inactive: 0.1,inactive: -0.001,inactive: 0.032
EIF3C (UniProt Q99613),inactive: 0,inactive: 0.007,inactive: 0.017,inactive: -0.06,inactive: -0.041,inactive: 0.024,inactive: -0.073,inactive: 0.009,inactive: 0.019,inactive: -0.015
EIF4E isoform 2 (UniProt P06730),inactive: -0.02,inactive: -0.026,inactive: -0.04,inactive: -0.122,inactive: -0.013,inactive: 0.061,inactive: 0.007,inactive: 0.032,inactive: -0.023,inactive: -0.005

# Reformatted with tabs: entries from further up
Target	log2 fold change (vemurafenib)	log2 fold change [1]	log2 fold change (barasertib)	log2 fold change [2]	log2 fold change (volasertib)	log2 fold change [3]	log2 fold change [4]	log2 fold change [5]	log2 fold change (saracatinib)	log2 fold change (sotrastaurin)
ERCC6 (UniProt Q03468)	inactive: 0.177	inactive: 0.077	inactive: -0.112	inactive: 0.081	inactive: 0.006	inactive: 0.002	inactive: -0.1	inactive: 0.026	inactive: -0.124	
EIF2B2 (UniProt P49770)	inactive: -0.063	inactive: 0.03	inactive: 0.016	inactive: -0.089	inactive: -0.004	inactive: 0.023	inactive: 0.029	inactive: -0.055	inactive: 0.012	inactive: 0.026
EMC3 (UniProt Q9P0I2)	inactive: 0.009	inactive: 0.03	inactive: -0.034	inactive: 0.047	inactive: -0.018	inactive: -0.041	inactive: -0.024	inactive: -0.017	inactive: 0.006	inactive: -0.026
EIF4EBP2 (UniProt Q13542)	inactive: -0.036	inactive: -0.09	inactive: 0.223	inactive: 0.218	inactive: 0.062	inactive: 0.122	inactive: -0.036	inactive: -0.16	inactive: 0.027	inactive: -0.028
ERGIC2 (UniProt Q96RQ1)	inactive: -0.006	inactive: 0	inactive: 0.125	inactive: -0.048	inactive: -0.028	inactive: 0.001	inactive: 0.064	inactive: -0.045	inactive: -0.032	inactive: -0.016
ERH (UniProt P84090)	inactive: -0.063	inactive: 0.026	inactive: -0.032	inactive: -0.028	inactive: 0.046	inactive: 0.006	inactive: 0.009	inactive: 0.012	inactive: -0.03	inactive: 0.006
ERBIN isoform 8 (UniProt Q96RT1)	inactive: 0.038	inactive: 0.015	inactive: -0.004	inactive: 0.068	inactive: -0.013	active: 0.338	inactive: -0.028	inactive: 0.1	inactive: -0.001	inactive: 0.032
